Measured values taken from PubChem BioAssay AID190 (DTP/NCI, 2004).
The list is a part of this screen's results and no random one: it is rich in T/C values a quarter to a half above the control, in often repeated tests (any T/C) and in doses without a T/C. Further doses and runs are listed elsewhere. T/C gives the treated animals as a percentage of the vehicle group. Some doses have a count of surviving animals in place of a T/C: the source files T/C as zero there, which appears to mark a toxic dose or a test without result, not a measured value. Some survivor counts are full or nearly so, which does not show that the dose was tolerated: the source hardly ever lists a survival T/C far under the control, and the zero likely stands for such cases as well. Counts of survivors are from the toxicity check (mostly the fifth day) where no day follows; animals may have died later. Schedules are NCI's codes, read here as Q, the interval in days (D) or hours (H), X, the number of doses. Counts like (3×) count equal records among those shown. Some doses were run more than once; the values are given in rising order. Where survival is the endpoint, this PubChem deposit counts one and a half times the control or more as active, and values a quarter to a half above the control carry no call in these data; other NCI protocols may use other cut-offs. Some T/C values are followed by the survivors on the day toxicity was checked, most often the fifth; without a count, all were alive then.

Tested on: AKR/Lw mice, AKR lymphoma ip, median survival T/C
Assay: NCI In Vivo Anticancer Drug Screen. Data for tumor model Lymphoma AKR (Transplanted) (intraperitoneal) in AKR/Lw mice
Conditions: T/C endpoint: median survival time, higher T/C = longer survival
Experimental: The antitumor activity of compounds was measured in mice bearing transplantable tumors. Survival or tumor size were measured and the results are expressed as the measurement made in the treated group (T) divided by the measurement made in the vehicle treated control group (C). The tumor model used in this assay is Lymphoma AKR (Transplanted) (intraperitoneal) in AKR/Lw mice

[1] = dose: 0.5 mg/kg/injection, schedule: Q04DX003 (ip), vehicle: saline
[2] = dose: 2.0 mg/kg/injection, schedule: Q04DX003 (ip), vehicle: saline
[3] = dose: 4.0 mg/kg/injection, schedule: Q04DX003 (ip), vehicle: saline
[4] = dose: 8.0 mg/kg/injection, schedule: Q01DX009 (ip), vehicle: saline
[5] = dose: 10.0 mg/kg/injection, schedule: Q07DX003 (ip), vehicle: saline
[6] = dose: 12.5 mg/kg/injection, schedule: Q01DX001 (ip), vehicle: saline
[7] = dose: 16.0 mg/kg/injection, schedule: Q04DX003 (ip), vehicle: saline
[8] = dose: 20.0 mg/kg/injection, schedule: Q07DX003 (ip), vehicle: saline
[9] = dose: 25.0 mg/kg/injection, schedule: Q07DX003 (ip), vehicle: saline
[10] = dose: 32.0 mg/kg/injection, schedule: Q04DX003 (ip), vehicle: saline
[11] = dose: 35.0 mg/kg/injection, schedule: Q01DX001 (ip), vehicle: saline
[12] = dose: 40.0 mg/kg/injection, schedule: Q01DX001 (ip), vehicle: saline
[13] = dose: 50.0 mg/kg/injection, schedule: Q01DX001 (ip), vehicle: saline

## O=NN(CCCl)C(=O)NCCCl
dose: 0.25 mg/kg/injection, schedule: Q04DX003 (ip), vehicle: saline
  survivor count: 10 of 10
dose: 0.5 mg/kg/injection, schedule: Q01DX009 (ip), vehicle: saline
  T/C: 107 [8 of 10 alive], 118 [9 of 10 alive], 121, 127 % of control
[1]
  T/C: 90, 102 [9 of 10 alive], 113 % of control
  survivor count: 10 of 10
dose: 1.0 mg/kg/injection, schedule: Q01DX009 (ip), vehicle: saline, evaluated on day 45
  T/C: 121 % of control
dose: 1.0 mg/kg/injection, schedule: Q01DX009 (ip), vehicle: saline, evaluated on day 60
  T/C: 104, 106, 112, 161 % of control
dose: 1.0 mg/kg/injection, schedule: Q01DX009 (ip), vehicle: saline
  survivor count: 10 of 10
dose: 1.0 mg/kg/injection, schedule: Q04DX003 (ip), vehicle: saline, evaluated on day 45
  T/C: 112 % of control
dose: 1.0 mg/kg/injection, schedule: Q04DX003 (ip), vehicle: saline, evaluated on day 60
  T/C: 93, 94, 120 [9 of 10 alive], 127 % of control
dose: 1.0 mg/kg/injection, schedule: Q04DX003 (ip), vehicle: saline
  survivor count: 10 of 10
dose: 1.2 mg/kg/injection, schedule: Q04DX003 (ip), vehicle: saline
  survivor count: 9 of 10
dose: 1.5 mg/kg/injection, schedule: Q07DX003 (ip), vehicle: saline
  survivor count: 10 of 10
dose: 2.0 mg/kg/injection, schedule: Q01DX009 (ip), vehicle: saline, evaluated on day 45
  T/C: 113 and 128 % of control
dose: 2.0 mg/kg/injection, schedule: Q01DX009 (ip), vehicle: saline, evaluated on day 60
  T/C: 97, 100, 107, 109, 113, 141, 147 % of control
[2]
  T/C: 89, 97, 97 [9 of 10 alive], 105, 117, 138 % of control
  survivor count: 10 of 10 (2×)
dose: 3.0 mg/kg/injection, schedule: Q04DX003 (ip), vehicle: saline
  T/C: 127 % of control
dose: 3.0 mg/kg/injection, schedule: Q07DX003 (ip), vehicle: saline
  survivor count: 5 of 10
dose: 3.12 mg/kg/injection, schedule: Q04DX003 (ip), vehicle: saline
  T/C: 134 % of control
dose: 4.0 mg/kg/injection, schedule: Q01DX009 (ip), vehicle: saline, evaluated on day 45
  T/C: 106, 126, 130 % of control
dose: 4.0 mg/kg/injection, schedule: Q01DX009 (ip), vehicle: saline, evaluated on day 60
  T/C: 95, 97, 97 [9 of 10 alive], 144 [9 of 10 alive], 147 % of control
[3]
  T/C: 97, 105, 108, 109, 113, 121, 137, 138 % of control
  survivor count: 10 of 10 (2×)
dose: 4.0 mg/kg/injection, schedule: Q04DX004 (ip), vehicle: saline
  T/C: 125 % of control
dose: 5.0 mg/kg/injection, schedule: Q01DX009 (ip), vehicle: saline
  survivor count: 9 of 10
dose: 5.0 mg/kg/injection, schedule: Q04DX003 (ip), vehicle: saline
  T/C: 130 % of control
dose: 5.0 mg/kg/injection, schedule: Q07DX003 (ip), vehicle: saline
  T/C: 92 (2×), 110, 113, 121, 126 % of control
dose: 6.0 mg/kg/injection, schedule: Q01DX001 (ip), vehicle: saline
  T/C: 102, 103, 107, 118 % of control
dose: 6.0 mg/kg/injection, schedule: Q01DX009 (ip), vehicle: saline
  survivor count: 10 of 10
dose: 6.0 mg/kg/injection, schedule: Q07DX003 (ip), vehicle: saline
  T/C: 128 % of control
dose: 6.25 mg/kg/injection, schedule: Q04DX003 (ip), vehicle: saline
  survivor count: 10 of 10
[4]
  T/C: 102 and 106 % of control
  survivor count: 9 of 10 and 10 of 10
dose: 8.0 mg/kg/injection, schedule: Q04DX003 (ip), vehicle: saline
  T/C: 94, 100, 111, 114 [9 of 10 alive], 125, 126 [9 of 10 alive], 136, 142 % of control
dose: 8.0 mg/kg/injection, schedule: Q04DX004 (ip), vehicle: saline
  T/C: 126 % of control
dose: 10.0 mg/kg/injection, schedule: Q01DX001 (ip), vehicle: saline, evaluated on day 5
  T/C: 109 % of control
dose: 10.0 mg/kg/injection, schedule: Q01DX001 (ip), vehicle: saline, evaluated on day 60
  T/C: 93, 103, 108, 109, 116, 118 (3×), 118 [7 of 10 alive], 129 % of control
dose: 10.0 mg/kg/injection, schedule: Q01DX009 (ip), vehicle: saline
  survivor count: 10 of 10
[5]
  T/C: 105, 115 (3×), 126 % of control [9 of 10 alive]
  survivor count: 10 of 10
dose: 12.0 mg/kg/injection, schedule: Q01DX001 (ip), vehicle: saline, evaluated on day 45
  T/C: 105 % of control
dose: 12.0 mg/kg/injection, schedule: Q01DX001 (ip), vehicle: saline, evaluated on day 60
  T/C: 100 and 105 % of control (2×)
[6]
  T/C: 126 % of control
  survivor count: 9 of 10
dose: 12.5 mg/kg/injection, schedule: Q04DX003 (ip), vehicle: saline
  survivor count: 10 of 10
dose: 15.0 mg/kg/injection, schedule: Q01DX001 (ip), vehicle: saline, evaluated on day 5
  T/C: 118 % of control
dose: 15.0 mg/kg/injection, schedule: Q01DX001 (ip), vehicle: saline, evaluated on day 7
  T/C: 97 % of control
dose: 15.0 mg/kg/injection, schedule: Q01DX001 (ip), vehicle: saline, evaluated on day 9
  T/C: 98 % of control
dose: 15.0 mg/kg/injection, schedule: Q01DX001 (ip), vehicle: saline, evaluated on day 11
  T/C: 124 % of control
dose: 15.0 mg/kg/injection, schedule: Q01DX001 (ip), vehicle: saline, evaluated on day 60
  T/C: 96 [7 of 10 alive], 100, 116, 118, 120, 133 % of control
dose: 15.0 mg/kg/injection, schedule: Q01DX001 (ip), vehicle: saline
  survivor count: 10 of 10
dose: 15.0 mg/kg/injection, schedule: Q07DX003 (ip), vehicle: saline
  T/C: 100, 102, 105 (2×), 121 [9 of 10 alive], 136 % of control
dose: 16.0 mg/kg/injection, schedule: Q01DX009 (ip), vehicle: saline
  survivor count: 10 of 10
[7]
  T/C: 111 and 128 % of control
  survivor count: 5 of 10 and 10 of 10
dose: 16.0 mg/kg/injection, schedule: Q04DX004 (ip), vehicle: saline
  survivor count: 10 of 10
dose: 20.0 mg/kg/injection, schedule: Q01DX001 (ip), vehicle: saline, evaluated on day 5
  T/C: 131 % of control
dose: 20.0 mg/kg/injection, schedule: Q01DX001 (ip), vehicle: saline, evaluated on day 60
  T/C: 96 [7 of 10 alive], 115 [9 of 10 alive], 116, 120, 125, 128, 131 % of control (3×)
dose: 20.0 mg/kg/injection, schedule: Q01DX001 (ip), vehicle: saline
  survivor count: 6 of 10
dose: 20.0 mg/kg/injection, schedule: Q01DX009 (ip), vehicle: saline
  survivor count: 9 of 10
[8]
  T/C: 105, 107, 136 % of control
  survivor count: 10 of 10
dose: 25.0 mg/kg/injection, schedule: Q01DX001 (ip), vehicle: saline, evaluated on day 5
  T/C: 88 % of control
dose: 25.0 mg/kg/injection, schedule: Q01DX001 (ip), vehicle: saline, evaluated on day 60
  T/C: 88, 103, 115, 115 [7 of 10 alive], 116, 117, 118 [9 of 10 alive], 131, 137 % of control (2×)
dose: 25.0 mg/kg/injection, schedule: Q01DX001 (ip), vehicle: saline
  survivor count: 7 of 10
[9]
  T/C: 92 [9 of 10 alive], 100, 102 % of control
  survivor count: 10 of 10
dose: 30.0 mg/kg/injection, schedule: Q01DX001 (ip), vehicle: saline, evaluated on day 7
  T/C: 144 % of control
dose: 30.0 mg/kg/injection, schedule: Q01DX001 (ip), vehicle: saline, evaluated on day 9
  T/C: 97 % of control
dose: 30.0 mg/kg/injection, schedule: Q01DX001 (ip), vehicle: saline, evaluated on day 11
  T/C: 139 % of control
dose: 30.0 mg/kg/injection, schedule: Q01DX001 (ip), vehicle: saline, evaluated on day 60
  T/C: 120 and 133 % of control (2×)
dose: 30.0 mg/kg/injection, schedule: Q01DX001 (ip), vehicle: saline
  survivor count: 1 of 10, 7 of 10, 9 of 10
dose: 30.0 mg/kg/injection, schedule: Q14DX003 (ip), vehicle: saline, evaluated on day 5
  T/C: 144 % of control
dose: 30.0 mg/kg/injection, schedule: Q14DX003 (ip), vehicle: saline, evaluated on day 60
  T/C: 144 % of control [9 of 10 alive]
dose: 32.0 mg/kg/injection, schedule: Q01DX009 (ip), vehicle: saline
  survivor count: 10 of 10
[10]
  T/C: 87 % of control [9 of 10 alive]
  survivor count: 2 of 10, 6 of 10, 10 of 10
[11]
  T/C: 133 % of control (2×)
  survivor count: 6 of 10, 9 of 10, 10 of 10
[12]
  T/C: 116, 129, 145 % of control
  survivor count: 6 of 10, 8 of 10, 9 of 10
dose: 40.0 mg/kg/injection, schedule: Q01DX009 (ip), vehicle: saline
  survivor count: 7 of 10
dose: 48.0 mg/kg/injection, schedule: Q01DX001 (ip), vehicle: saline
  survivor count: 10 of 10
[13]
  T/C: 88 [9 of 10 alive], 104 [8 of 10 alive], 121 % of control
  survivor count: 7 of 10 and 10 of 10
dose: 50.0 mg/kg/injection, schedule: Q04DX003 (ip), vehicle: water
  survivor count: 9 of 10
dose: 64.0 mg/kg/injection, schedule: Q04DX003 (ip), vehicle: saline
  survivor count: 6 of 10
dose: 75.0 mg/kg/injection, schedule: Q01DX001 (ip), vehicle: saline
  survivor count: 7 of 10
dose: 80.0 mg/kg/injection, schedule: Q01DX009 (ip), vehicle: saline
  survivor count: 1 of 10
dose: 100.0 mg/kg/injection, schedule: Q01DX001 (ip), vehicle: saline
  survivor count: 0 of 10, 5 of 10, 6 of 10
dose: 200.0 mg/kg/injection, schedule: Q01DX001 (ip), vehicle: saline
  survivor count: 4 of 10
